Measurements published in patent US4053635A, “Substituted amides of 3-methyl-4-phenyl-3-butenoic acid, with a high hypolipemizing activity” (Istituto Biochimico Italiano di Loredana Lorenzini S.a.s., priority 1974, dated 1977).

Experiment: hyperlipemia from ethanol (Table V)
Type: in vivo, Sprague-Dawley male rat
Conditions: gastric intubation, ethyl alcohol 10% in water 1 week (ethanol alone 16.1)
Procedure: Sprague-Dawley male rat of the average weight of 150 g. ethyl alcohol 10%
in water for 1 week (in parenthesis, the N. of animals). The substances
have been administered by gastric intubation at the dose of 200 and 300
mg/kg/day. In experiments of subchronic toxicity, the diethylamide of […]

## CCOC(=O)C(C)(C)Oc1ccc(Cl)cc1 [chlofibrate, ethyl ester of 2-(p-chlorophenoxy)-2-methyl propanoic acid, reference compound]
200 mg/kg/day
  g. alcohol drunk per rat: 20 g

## CCN(CC)C(=O)C/C(C)=C/c1ccccc1 [IIId, Diethylamide of 3-methyl-4-phenyl-3-butenoic acid]
200 mg/kg/day
  g. alcohol drunk per rat: 14.8 g
300 mg/kg/day
  g. alcohol drunk per rat: 13.2 g
